# Primary screen of a compound library

By UniProt entry, the sequences of proteins in these tests, tags left out.
UniProt E9BF75, entry or part of it: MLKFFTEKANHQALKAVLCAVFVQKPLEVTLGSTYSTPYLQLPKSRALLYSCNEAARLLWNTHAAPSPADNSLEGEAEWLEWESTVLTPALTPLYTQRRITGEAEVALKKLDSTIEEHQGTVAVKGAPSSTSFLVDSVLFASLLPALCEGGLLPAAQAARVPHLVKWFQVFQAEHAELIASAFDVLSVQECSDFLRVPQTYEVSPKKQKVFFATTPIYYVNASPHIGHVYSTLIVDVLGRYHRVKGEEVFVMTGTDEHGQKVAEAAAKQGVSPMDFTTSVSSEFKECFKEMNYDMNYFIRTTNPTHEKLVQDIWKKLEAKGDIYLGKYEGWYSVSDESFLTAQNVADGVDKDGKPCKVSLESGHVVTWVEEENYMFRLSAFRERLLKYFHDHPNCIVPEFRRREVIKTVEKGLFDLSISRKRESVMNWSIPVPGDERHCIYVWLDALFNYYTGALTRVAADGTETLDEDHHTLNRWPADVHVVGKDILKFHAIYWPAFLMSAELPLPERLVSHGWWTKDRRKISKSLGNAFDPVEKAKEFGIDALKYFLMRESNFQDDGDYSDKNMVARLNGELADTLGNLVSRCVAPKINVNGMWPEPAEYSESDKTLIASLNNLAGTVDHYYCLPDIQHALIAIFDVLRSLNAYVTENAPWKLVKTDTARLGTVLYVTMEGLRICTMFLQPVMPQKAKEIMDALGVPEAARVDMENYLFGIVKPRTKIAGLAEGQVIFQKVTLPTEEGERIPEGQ

From ChEMBL document CHEMBL3988442, “University of Dundee, Small-Polar-MMV Screening Library” (2021).

All values are in %. The record does not define 0% and 100%; most values in the screen are far below 50% and negative numbers occur (in some assays of this library far below -100). The compounds are a random part of those screened.

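Primary screen of methionyl-tRNA synthetase; the read-out is not stated. Target: Methionyl-tRNA synthetase (putative), Leishmania donovani (UniProt E9BF75). The test concentration is not given. Values are per cent inhibition. Size under these conditions: about 68,000 compounds, about 24 of them at 50% or above in at least one test.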

Compound | inhibition
COC(=O)[C@@H](NC(=O)c1snnc1-c1ccc(OC)cc1)C(C)C | -7.094
Cc1nc(-c2noc3ccc(C(=O)NCCN(C)C)cc23)co1 | 11.52
Cc1ccccc1OCCn1cnc2oc(C)c(C(=O)O)c2c1=O | 7.563
CNC(=O)c1cccc(CCNc2ncc(Br)cn2)c1 | 11.35
O=c1n(CC2COCCO2)nc(CC2CCNCC2)n1-c1ccccc1 (centres undefined) | 7.444
O=C(c1ccsc1)N1CCOC2(CCN(Cc3cccnc3)CC2)C1 | 15.48
O=C(NCc1cc(=O)n2c(n1)CN(CC1CCOC1)CCC2)C1CC1 (centres undefined) | 18.5
CCn1c(C)nnc1SCCn1cc(-c2ncc[nH]2)nn1 | -4.092
COc1ccc(COCC(O)CN2CCC(c3ccn[nH]3)CC2)cc1 (centres undefined) | 24.51
CCC(CC)n1nc(C)cc1NC(=O)C1CCOC1 (centres undefined) | 1.489
COc1cc2c(cc1C(=O)N1CCCCC1c1ccccn1)CCC2 (centres undefined) | 14.37
COc1ccc(CC(=O)N2CCCC(c3cc(C)[nH]n3)C2)cc1 (centres undefined) | 9.841
CS(=O)(=O)N1CCC2(CC1)CC(CC(=O)NCC1CC1)c1ccccc12 (centres undefined) | 11.25
CC(Oc1ccc(F)cc1F)C(=O)N1CCC2(CCCO2)CC1 (centres undefined) | 11.85
CCN1CCN(c2ncc(-c3cc(C)no3)c(-c3ccc(C)s3)n2)CC1 | 18.15
Cc1ccc(C2(C(=O)N3CCC(n4cc(C(C)O)nn4)CC3)CC2)cc1 (centres undefined) | 6.03
Cc1cc(CC(=O)N2CCN(CC(C)C)[C@@H]3CS(=O)(=O)C[C@@H]32)ccc1F | 7.865
CCc1ccc(CN2C[C@@H]3COC[C@H](NS(C)(=O)=O)[C@@H]3C2)o1 | 7.397
O=C(O)c1c[nH]c2cc(NS(=O)(=O)c3cccc(F)c3F)ccc12 | 15.34
CC(=O)N1CCC(Cc2nccnc2-c2ccnn2C)CC1 | 18.73
CC(C)(C)c1ccn(C2(C(=O)O)CCN(c3ncccc3C#N)CC2)n1 | 9.348
O=C(COCC1CCCO1)N(Cc1cccnc1)c1ccc(F)cc1 (centres undefined) | 4.444
CN1C(Cn2cccn2)C[C@@H]2CN(Cc3ccccn3)CC[C@@H]21 (some centres undefined) | -11.26
CCN(CC1CCCO1)C(=O)Nc1cc(OC)c(OC)cc1C (centres undefined) | 4.225
O=S(=O)(c1cccnc1)N1C[C@@H]2COC[C@]2(COCC2CC2)C1 | 3.114
CCc1nnc(S(=O)(=O)Cc2cc(Cl)c3c(c2)OCO3)n1C | 11.55
COC(=O)CC(C)(C)CC(=O)N1CCC(C(F)(F)F)CC1 | 9.329
CN(Cc1ccsc1)C(=O)Nc1ccc(N(C)C)nc1 | 16.62
CC(Cn1cccn1)NC(=O)CCc1nc(C(C)(C)C)no1 (centres undefined) | 19.34
Cc1nnc(CN(CCc2ccccc2)C2CCN(C)CC2)s1 | 11.75
CC(=O)N1CCO[C@@H]2CN(C(=O)c3ccccc3)CC[C@@H]2C1 | 11.68
c1cc(-c2cscn2)cc(N2CCC(NCCc3cccs3)CC2)c1 | 8.657
Cc1cc(C)n(C2CCCN(C(=O)c3cc(C4CC4)on3)C2)n1 (centres undefined) | 16.67
Cc1nn(C)c(C)c1C1CCCN1CC(=O)Nc1cc(C(C)C)no1 (centres undefined) | 20.67
Cc1cc(C)n(Cc2ccc(C(=O)N3CCOCC3(C)C)cc2)n1 | 5.415
Cc1cc(CNC(=O)NCC(O)c2cccc(C(F)(F)F)c2)no1 (centres undefined) | 16.15
O=C(NCc1ccnc(OCC(F)(F)F)c1)NCC1CCCO1 (centres undefined) | 7.547
Cc1cc(C(=O)N2CCN(C)CC2)nn1CC(=O)NCc1ccccn1 | 13.67
Cc1cccc(CN2C[C@@H]3CN(C4CCOCC4)C[C@@H]3C2=O)c1 | 12.03
CCN1CCC2(CC1)CC(NC(=O)NC)c1cc(C)ccc12 (centres undefined) | 12.97
NC(=O)C1CCCN(C(=O)c2cccc(OCc3cscn3)c2)C1 (centres undefined) | 13.22
CCn1cc(CN2CCCC(c3[nH]ncc3-c3ccc(F)cc3)C2)cn1 (centres undefined) | 18.64
CCn1ccnc1CN1CCC(Oc2ccccc2F)(C(=O)O)CC1 | 3.78
CN(C)CCN(C)C(=O)c1ccccc1-n1cc(CN(C)C)cn1 | 20.58
O=C(NCc1ccccc1)NCc1nc(-c2ccncc2)n[nH]1 | 17.46
Cc1noc(C)c1CC(=O)N[C@@H]1CC[C@@H](Oc2ccccc2)[C@@H]1O | 15.12
Cc1ncc(CN(C)CC(O)c2ccc(Br)cc2)s1 (centres undefined) | 10.05
Cc1nc(C)n(CC2CCCN(CC(=O)N3CCCC3)C2)n1 (centres undefined) | 19.89
COCCNC(=O)c1sccc1N(C)S(=O)(=O)c1ccc(Cl)cc1 | 3.966
CC(C)NC(=O)C1CCN(c2snc3ccccc23)CC1 | 25.5
CCCN1Cc2ccccc2NC(=O)C12CCNC2 (centres undefined) | 13.14
O=C(NCCc1ccccc1)C1CCN(C(=O)Cn2cncn2)C1 (centres undefined) | 13.29
Cc1cnc(CNC(=O)C2CCOc3ccccc3C2)cn1 (centres undefined) | 16.21
CCN1CCC(CNCc2cc(C)ccc2OC)C1 (centres undefined) | 5.495
COc1ccc(C2=CCN(C(=O)CN(C)S(C)(=O)=O)CC2)cc1 | 18.87
Cc1ncsc1CN1C[C@@H](OCC(=O)N(C)C)[C@H]2OCCC[C@H]21 | 6.529
CC(C)C(=O)N1CCCC1C(=O)Nc1cc(C(F)(F)F)ccc1F (centres undefined) | 9.137
CC(=O)N1CCc2c(nc(-c3ccccn3)nc2N(C)CC(O)CO)C1 (centres undefined) | 12.59
CN1CCOC(c2cncc(CCC(=O)N(C)C)n2)C1 (centres undefined) | 14.17
CC(=O)Nc1c(C)noc1/C=C\c1ccc(S(=O)(=O)NC2CC2)cc1 | 7.726
COC(=O)c1sc2cccc(F)c2c1CNC(=O)C1CCOC1 (centres undefined) | 9.409
CN1C(=O)C2(CCN(S(C)(=O)=O)CC2)c2cc(F)ccc21 | 17.37
CCOC(=O)[C@@H]1[C@@H](c2ccccc2)CN2CCN(S(C)(=O)=O)C[C@H]12 | 6.849
c1cnc(Nc2cncc(C3CCCN(c4cnccn4)C3)n2)nc1 (centres undefined) | 22.03
CN1C(=O)C(c2ccccc2)CC12CCN(CCN)CC2 (centres undefined) | 12.32
COc1cccc(Cl)c1C(C(=O)O)N1CCC(Cn2cccn2)CC1 (centres undefined) | 3.284
CC(c1ccc(F)cc1)n1ccnc1-c1cc2n(n1)CCCNC2 (centres undefined) | 10.56
Cn1cc(CN2CC[C@@H]3O[C@H](C(=O)N4CCOCC4)C[C@@H]32)cn1 | 5.714

8 of the entries, repeated:

{"compound": "Cc1ncc(CN(C)CC(O)c2ccc(Br)cc2)s1", "stereo": "centres undefined", "inhibition": 10.05}
{"compound": "CC(=O)Nc1c(C)noc1/C=C\\c1ccc(S(=O)(=O)NC2CC2)cc1", "inhibition": 7.726}
{"compound": "CCN1CCN(c2ncc(-c3cc(C)no3)c(-c3ccc(C)s3)n2)CC1", "inhibition": 18.15}
{"compound": "c1cc(-c2cscn2)cc(N2CCC(NCCc3cccs3)CC2)c1", "inhibition": 8.657}
{"compound": "CC(C)(C)c1ccn(C2(C(=O)O)CCN(c3ncccc3C#N)CC2)n1", "inhibition": 9.348}
{"compound": "Cc1nnc(CN(CCc2ccccc2)C2CCN(C)CC2)s1", "inhibition": 11.75}
{"compound": "CN(C)CCN(C)C(=O)c1ccccc1-n1cc(CN(C)C)cn1", "inhibition": 20.58}
{"compound": "Cc1nc(C)n(CC2CCCN(CC(=O)N3CCCC3)C2)n1", "stereo": "centres undefined", "inhibition": 19.89}